{"source": "PubChem BioAssay AID1053208 (Peter MacCallum Cancer Centre, 2014)", "screen": "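Synthetic lethal interactions between gene loss and doxorubicin in osteosarcoma cells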 (primary screen)", "cell system": "mouse osteosarcoma cells, early-passage culture from an engineered mouse model of fibroblastic bone tumour", "reagent": "siRNA pool against mouse genes, 40 nM", "time to read-out": "about 120 h (48 h before drug, then 72 h with drug)", "challenge": "doxorubicin 100 nM for 72 h, roughly 30-40% inhibitory dose", "measured": "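Viability read as ATP luminescence after 72 h of 100 nM doxorubicin or none, duplicate wells averaged, scaled to non-targeting siRNA, then expressed as robust z-scores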", "direction": "viability z-score with doxorubicin: higher = more viable cells under doxorubicin; viability z-score without drug: higher = more viable cells with knock-down alone", "hit rule": "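Called active if knock-down leaves viability unchanged without drug (z within -2 to 2) but lowers it with doxorubicin (z at or under -2)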", "note": "The deposit covers about 17,000 reagents; shown is a part drawn at random. 788 of them (4.7%) count as active. 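Calls rest on z-score classes alone; an extra cut-off of viability at most 70% of control was not applied to them.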 Further read-outs or replicates are left out here."}
{"target gene": "Hspa4l (heat shock protein 4 like)", "PubChem SID": "SID152323159", "combined z-score class": "no change with or without drug", "viability z-score with doxorubicin": 1.24, "viability z-score without drug": 0.17, "outcome": "inactive"}
{"target gene": "Kdm5b (lysine demethylase 5B)", "PubChem SID": "SID152318997", "combined z-score class": "no change with or without drug", "viability z-score with doxorubicin": -0.45, "viability z-score without drug": -0.17, "outcome": "inactive"}
{"target gene": "Rab3c (RAB3C, member RAS oncogene family)", "PubChem SID": "SID152270661", "combined z-score class": "no change with or without drug", "viability z-score with doxorubicin": 0.79, "viability z-score without drug": 0, "outcome": "inactive"}
{"target gene": "Inppl1 (inositol polyphosphate phosphatase-like 1)", "PubChem SID": "SID152342455", "combined z-score class": "no change with or without drug", "viability z-score with doxorubicin": 0.9, "viability z-score without drug": 1.18, "outcome": "inactive"}
{"target gene": "Asprv1 (aspartic peptidase, retroviral-like 1)", "PubChem SID": "SID152269184", "combined z-score class": "low cell count with doxorubicin only", "viability z-score with doxorubicin": -2.7, "viability z-score without drug": 0.67, "outcome": "active"}
{"target gene": "Dnaaf6 (dynein axonemal assembly factor 6)", "PubChem SID": "SID152283244", "combined z-score class": "no change with or without drug", "viability z-score with doxorubicin": 0.67, "viability z-score without drug": 0.84, "outcome": "inactive"}
{"target gene": "Cep295 (centrosomal protein 295)", "PubChem SID": "SID152261315", "combined z-score class": "no change with or without drug", "viability z-score with doxorubicin": 0, "viability z-score without drug": -1.18, "outcome": "inactive"}
{"target gene": "Klhl1 (kelch-like 1)", "PubChem SID": "SID152296313", "combined z-score class": "no change with or without drug", "viability z-score with doxorubicin": -1.57, "viability z-score without drug": 0.51, "outcome": "inactive"}
{"target gene": "Ccn3 (cellular communication network factor 3)", "PubChem SID": "SID152310306", "combined z-score class": "no change with or without drug", "viability z-score with doxorubicin": 1.24, "viability z-score without drug": 0.17, "outcome": "inactive"}
{"target gene": "Mstn (myostatin)", "PubChem SID": "SID152330279", "combined z-score class": "no change with or without drug", "viability z-score with doxorubicin": 0.67, "viability z-score without drug": 0.51, "outcome": "inactive"}
{"target gene": "Gnpnat1 (glucosamine-phosphate N-acetyltransferase 1)", "PubChem SID": "SID152282350", "combined z-score class": "no change with or without drug", "viability z-score with doxorubicin": 0.11, "viability z-score without drug": -0.51, "outcome": "inactive"}
{"target gene": "Pnliprp1 (pancreatic lipase related protein 1)", "PubChem SID": "SID152308093", "combined z-score class": "no change with or without drug", "viability z-score with doxorubicin": 0.9, "viability z-score without drug": 0.17, "outcome": "inactive"}
